Measurements from paper PMC7290365, “Human Induced Pluripotent Stem Cell-Derived 3D-Neurospheres Are Suitable for Neurotoxicity Screening” (Cells, 2020).
Where two headings read alike, the source gives them in different places.

Tested on: hiPSC-derived 3D neurospheres
Test: cells
Format: cell-based
Conditions: Homo sapiens, 72 h
Protocol: After thawing, NSCs (generated as detailed above) were cultured on POL/L (0.002%/1 µg/cm^2) coated plates (50,000 cells/cm^2). When reached 100% confluence NSCs were propagated with Accutase treatment and single-cell suspension was plated onto a low-adherent 96-well plate with 10,000 cells/well in NMM medium. […] Samples were collected at Day 0 (D0), Day 2 (D2), and weekly intervals from the end of the 1st week (D7) until the end of the 6th week (D14, D21, D28, D35, and D42).
Eleven well-known compounds were tested in 7 different concentrations to generate concentration-response curves. The tested compounds with the used concentrations are detailed in Table S3. […] In each assay plate, 4 technical replicates were applied from each sample and 3 biological replicate assays were run (n = 3). The 3D cell cultures were exposed to the toxicants for 72 h (exposure schemes are detailed in Figure 5A or Figure 6A or Figure 7A). Vehicle control was used as a regular medium supplemented with 0.1% DMSO.
ATP viability assay was performed with CellTiter-Glo® 3D Cell Viability Assay, according to the manufacturer’s protocol (Promega). Neurospheres were lysed with 100 μL CellTiter-Glo® 3D Reagent for 60 min at RT. Luminescence signal was recorded with a Thermo VarioScan Flash (Thermo Fisher Scientific) plate reader.
All results were analyzed using Prism 5 (GraphPad Software, La Jolla, CA, USA) and handled in Microsoft Office 2010 (Microsoft, Redmond, WA, USA) software. For normalization of the concentration response, the average values of positive control were used as 0% and the average of vehicle control served as 100%. Four parameter curve fitting methods were used to determine EC10 and EC50 values, where the data on the graphs represent the average of three biological replicates. The “n” value corresponds to the number of biological replicates for each tested concentration. Analysis of data is presented as the mean ± SEM. Significance of data was determined with paired T test for RT-qPCR (* p < 0.01) and with One-way ANOVA for concentration response (* p < 0.05; ** p < 0.01).

## COc1cc2c(c(OC)c1OC)-c1ccc(OC)c(=O)cc1[C@@H](NC(C)=O)CC2 [Colchicine, (S)-N-(5,6,7,9-Tetrahydro-1,2,3,10-tetramethoxy-9-oxobenzo[a]heptalen-7-yl)acetamide]
read-out: EC10 (cell viability), D28 3D neurospheres, 72 h exposure
  EC10: 0.692 nM
read-out: EC50 (cell viability), D21 3D neurospheres, 72 h exposure
  EC50: 324 nM
read-out: EC50 (cell viability), D28 3D neurospheres, 72 h exposure
  EC50: 229 nM
read-out: EC50 (cell viability), D42 3D neurospheres, 72 h exposure
  EC50: 120 nM
